Test results: article PMC11937301

By UniProt entry, the sequences of proteins in these tests, tags left out.
UniProt P98170: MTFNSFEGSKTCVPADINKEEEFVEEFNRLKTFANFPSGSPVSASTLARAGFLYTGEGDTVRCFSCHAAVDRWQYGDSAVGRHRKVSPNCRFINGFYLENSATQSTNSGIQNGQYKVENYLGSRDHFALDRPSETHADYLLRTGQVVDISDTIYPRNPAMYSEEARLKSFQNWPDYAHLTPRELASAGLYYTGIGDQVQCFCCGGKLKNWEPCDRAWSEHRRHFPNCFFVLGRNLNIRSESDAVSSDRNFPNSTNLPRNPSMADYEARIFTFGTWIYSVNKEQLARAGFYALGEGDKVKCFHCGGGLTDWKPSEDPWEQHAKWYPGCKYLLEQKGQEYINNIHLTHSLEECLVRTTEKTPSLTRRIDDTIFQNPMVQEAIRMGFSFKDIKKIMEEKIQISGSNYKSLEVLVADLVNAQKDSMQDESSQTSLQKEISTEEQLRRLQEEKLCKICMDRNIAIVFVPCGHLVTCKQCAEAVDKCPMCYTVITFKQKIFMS
UniProt Q9UKA4: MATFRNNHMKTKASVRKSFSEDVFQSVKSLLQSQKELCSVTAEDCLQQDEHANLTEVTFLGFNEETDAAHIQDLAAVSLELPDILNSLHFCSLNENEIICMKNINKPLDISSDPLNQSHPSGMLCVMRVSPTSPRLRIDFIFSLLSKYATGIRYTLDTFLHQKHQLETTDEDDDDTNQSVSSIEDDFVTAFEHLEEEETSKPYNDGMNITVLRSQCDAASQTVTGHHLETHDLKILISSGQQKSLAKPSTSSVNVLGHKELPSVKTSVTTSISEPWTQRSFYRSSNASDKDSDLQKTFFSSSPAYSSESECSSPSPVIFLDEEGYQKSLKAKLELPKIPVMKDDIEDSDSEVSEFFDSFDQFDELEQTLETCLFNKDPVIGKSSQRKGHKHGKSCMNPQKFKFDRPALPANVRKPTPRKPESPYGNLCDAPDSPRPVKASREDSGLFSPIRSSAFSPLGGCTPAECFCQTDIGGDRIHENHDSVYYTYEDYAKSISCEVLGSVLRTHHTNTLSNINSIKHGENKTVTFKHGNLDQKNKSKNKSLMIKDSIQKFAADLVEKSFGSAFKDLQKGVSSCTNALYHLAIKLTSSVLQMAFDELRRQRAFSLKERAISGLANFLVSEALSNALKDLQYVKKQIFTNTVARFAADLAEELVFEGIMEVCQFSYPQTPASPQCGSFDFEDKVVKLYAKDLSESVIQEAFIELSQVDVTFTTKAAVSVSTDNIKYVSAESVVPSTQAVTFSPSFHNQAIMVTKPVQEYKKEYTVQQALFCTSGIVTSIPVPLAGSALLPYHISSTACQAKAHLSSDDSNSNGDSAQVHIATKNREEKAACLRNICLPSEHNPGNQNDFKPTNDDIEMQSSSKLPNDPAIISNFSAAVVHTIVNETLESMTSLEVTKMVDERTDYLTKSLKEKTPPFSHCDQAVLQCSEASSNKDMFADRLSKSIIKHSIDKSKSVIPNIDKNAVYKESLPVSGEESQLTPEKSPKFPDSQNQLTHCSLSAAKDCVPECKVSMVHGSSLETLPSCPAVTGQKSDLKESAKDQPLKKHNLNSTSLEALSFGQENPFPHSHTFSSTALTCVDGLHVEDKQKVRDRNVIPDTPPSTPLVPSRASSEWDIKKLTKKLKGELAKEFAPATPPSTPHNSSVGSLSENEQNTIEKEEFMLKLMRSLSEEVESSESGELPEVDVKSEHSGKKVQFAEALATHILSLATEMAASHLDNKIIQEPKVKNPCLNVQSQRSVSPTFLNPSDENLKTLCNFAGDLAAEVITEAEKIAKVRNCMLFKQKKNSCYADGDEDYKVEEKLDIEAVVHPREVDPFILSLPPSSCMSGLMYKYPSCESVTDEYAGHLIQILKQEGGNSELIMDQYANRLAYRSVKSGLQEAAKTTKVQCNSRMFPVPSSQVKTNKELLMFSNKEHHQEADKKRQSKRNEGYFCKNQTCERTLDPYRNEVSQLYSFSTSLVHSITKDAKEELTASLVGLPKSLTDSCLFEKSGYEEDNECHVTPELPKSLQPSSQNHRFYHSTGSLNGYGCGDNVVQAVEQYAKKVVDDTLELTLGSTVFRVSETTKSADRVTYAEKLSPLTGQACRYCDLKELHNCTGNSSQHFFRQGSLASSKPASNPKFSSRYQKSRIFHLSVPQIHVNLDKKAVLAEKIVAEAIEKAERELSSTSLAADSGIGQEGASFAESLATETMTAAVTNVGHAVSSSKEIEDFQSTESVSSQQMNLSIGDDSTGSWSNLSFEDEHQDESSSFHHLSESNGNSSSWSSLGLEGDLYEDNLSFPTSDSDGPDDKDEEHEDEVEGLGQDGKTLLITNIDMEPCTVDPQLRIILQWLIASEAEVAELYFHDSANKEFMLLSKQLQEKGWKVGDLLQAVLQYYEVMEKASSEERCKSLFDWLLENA
UniProt O94916: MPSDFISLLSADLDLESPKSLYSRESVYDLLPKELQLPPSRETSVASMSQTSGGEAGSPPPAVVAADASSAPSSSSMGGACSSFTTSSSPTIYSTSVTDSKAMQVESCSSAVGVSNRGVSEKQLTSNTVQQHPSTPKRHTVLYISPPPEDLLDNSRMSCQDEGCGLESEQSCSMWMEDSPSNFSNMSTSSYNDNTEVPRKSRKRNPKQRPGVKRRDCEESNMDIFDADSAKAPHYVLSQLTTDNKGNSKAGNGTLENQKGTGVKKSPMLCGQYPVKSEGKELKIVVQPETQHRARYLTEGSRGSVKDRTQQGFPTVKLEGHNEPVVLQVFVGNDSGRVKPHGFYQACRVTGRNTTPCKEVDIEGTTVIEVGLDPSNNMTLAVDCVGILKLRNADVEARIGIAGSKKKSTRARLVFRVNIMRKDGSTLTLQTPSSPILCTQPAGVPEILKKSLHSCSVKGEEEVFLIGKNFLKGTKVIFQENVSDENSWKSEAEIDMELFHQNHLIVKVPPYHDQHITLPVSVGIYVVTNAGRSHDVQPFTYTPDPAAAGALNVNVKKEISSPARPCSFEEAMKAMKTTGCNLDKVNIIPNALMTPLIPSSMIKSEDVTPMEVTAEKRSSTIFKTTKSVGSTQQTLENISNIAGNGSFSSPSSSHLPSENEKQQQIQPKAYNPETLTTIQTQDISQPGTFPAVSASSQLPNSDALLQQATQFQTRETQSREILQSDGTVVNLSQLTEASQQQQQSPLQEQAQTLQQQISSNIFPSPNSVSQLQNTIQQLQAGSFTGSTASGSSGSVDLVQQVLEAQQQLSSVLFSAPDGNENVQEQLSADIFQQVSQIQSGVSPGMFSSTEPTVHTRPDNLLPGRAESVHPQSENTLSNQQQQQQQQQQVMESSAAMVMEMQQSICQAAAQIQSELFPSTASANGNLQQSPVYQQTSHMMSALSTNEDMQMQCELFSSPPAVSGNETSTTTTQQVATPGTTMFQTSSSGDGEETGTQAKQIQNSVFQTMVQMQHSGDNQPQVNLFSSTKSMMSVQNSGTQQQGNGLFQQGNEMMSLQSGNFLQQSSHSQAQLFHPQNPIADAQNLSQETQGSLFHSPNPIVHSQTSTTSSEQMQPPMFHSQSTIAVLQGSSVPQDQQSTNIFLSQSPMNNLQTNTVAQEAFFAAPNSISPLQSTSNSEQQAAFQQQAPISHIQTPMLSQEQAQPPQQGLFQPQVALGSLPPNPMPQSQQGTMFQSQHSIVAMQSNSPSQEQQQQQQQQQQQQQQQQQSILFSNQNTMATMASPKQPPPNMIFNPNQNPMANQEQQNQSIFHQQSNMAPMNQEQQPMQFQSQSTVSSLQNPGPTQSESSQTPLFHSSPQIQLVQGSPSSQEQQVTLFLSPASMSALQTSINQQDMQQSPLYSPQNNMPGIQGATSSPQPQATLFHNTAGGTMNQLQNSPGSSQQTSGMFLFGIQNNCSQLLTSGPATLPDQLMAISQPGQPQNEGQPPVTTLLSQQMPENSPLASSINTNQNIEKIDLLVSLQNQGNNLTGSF

B1: LETMD1 (protein, UniProt Q6P1Q0 1-360)
chain: MALSRVCWARSAVWGSAVTPGHFVTRRLQLGRSGLAWGAPRSSKLHLSPKADVKNLMSYVVTKTKAINGKYHRFLGRHFPRFYVLYTIFMKGLQMLWADAKKARRIKTNMWKHNIKFHQLPYREMEHLRQFRQDVTKCLFLGIISIPPFANYLVFLLMYLFPRQLLIRHFWTPKQQTDFLDIYHAFRKQSHPEIISYLEKVIPLISDAGLRWRLTDLCTKIQRGTHPAIHDILALRECFSNHPLGMNQLQALHVKALSRAMLLTSYLPPPLLRHRLKTHTTVIHQLDKALAKLGIGQLTAQEVKSACYLRGLNSTHIGEDRCRTWLGEWLQISCSLKEAELSLLLHNVVLLSTNYLGTRR

Biological target: HA-XIAP (X-linked inhibitor of apoptosis protein) (human) (UniProt P98170)
Test: affinity purification with mass spectrometry; ectopic overexpression of XIAP in UMUC3 cells, pull-down with anti-HA beads, IP-MS; hits intersected with iTRAQ data of XIAP knockdown

Molecule | binding
AKAP11 (from UniProt Q9UKA4 1-1901) | binds
NFAT5 (from UniProt O94916 1-1531) | binds
B1 | binds

Results are given in words; binding and its absence hold for the method and conditions named. Binding seen in cells or lysates may run through a third protein. A yes stands for co-enrichment or nearness to the bait. Other partners may have been found.
